Reference: the supplement of paper PMC10849652
Some of the results follow.

Sequences of proteins named here, by UniProt entry; tags and fusion partners are left off. A change or cut given only in a name is not applied to a line headed by its entry.
UniProt O60828: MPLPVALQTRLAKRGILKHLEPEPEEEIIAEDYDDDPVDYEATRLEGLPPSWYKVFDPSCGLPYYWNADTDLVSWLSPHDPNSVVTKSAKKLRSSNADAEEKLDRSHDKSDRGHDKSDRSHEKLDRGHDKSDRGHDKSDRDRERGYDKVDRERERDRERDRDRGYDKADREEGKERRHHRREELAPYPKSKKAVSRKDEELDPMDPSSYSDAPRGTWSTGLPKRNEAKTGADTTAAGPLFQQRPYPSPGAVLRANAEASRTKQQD
UniProt O60678: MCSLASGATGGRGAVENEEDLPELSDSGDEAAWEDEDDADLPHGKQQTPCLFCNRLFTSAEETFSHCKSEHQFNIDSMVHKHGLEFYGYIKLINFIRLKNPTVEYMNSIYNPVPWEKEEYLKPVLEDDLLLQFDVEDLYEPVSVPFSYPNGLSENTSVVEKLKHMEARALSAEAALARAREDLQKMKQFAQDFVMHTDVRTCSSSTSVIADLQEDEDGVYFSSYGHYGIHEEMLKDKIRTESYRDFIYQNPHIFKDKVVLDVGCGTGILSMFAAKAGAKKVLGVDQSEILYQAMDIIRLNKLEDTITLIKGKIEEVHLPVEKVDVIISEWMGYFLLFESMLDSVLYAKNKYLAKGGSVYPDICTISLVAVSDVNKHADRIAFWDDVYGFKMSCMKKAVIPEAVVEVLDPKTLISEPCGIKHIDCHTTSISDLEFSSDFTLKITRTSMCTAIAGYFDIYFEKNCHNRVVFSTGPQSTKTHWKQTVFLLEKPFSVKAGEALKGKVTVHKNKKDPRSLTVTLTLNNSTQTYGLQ
UniProt Q16378: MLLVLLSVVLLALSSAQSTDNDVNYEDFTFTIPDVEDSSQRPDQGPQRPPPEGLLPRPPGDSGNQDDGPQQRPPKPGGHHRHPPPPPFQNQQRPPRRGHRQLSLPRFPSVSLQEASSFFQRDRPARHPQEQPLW
UniProt P41219, whole entry, looked up: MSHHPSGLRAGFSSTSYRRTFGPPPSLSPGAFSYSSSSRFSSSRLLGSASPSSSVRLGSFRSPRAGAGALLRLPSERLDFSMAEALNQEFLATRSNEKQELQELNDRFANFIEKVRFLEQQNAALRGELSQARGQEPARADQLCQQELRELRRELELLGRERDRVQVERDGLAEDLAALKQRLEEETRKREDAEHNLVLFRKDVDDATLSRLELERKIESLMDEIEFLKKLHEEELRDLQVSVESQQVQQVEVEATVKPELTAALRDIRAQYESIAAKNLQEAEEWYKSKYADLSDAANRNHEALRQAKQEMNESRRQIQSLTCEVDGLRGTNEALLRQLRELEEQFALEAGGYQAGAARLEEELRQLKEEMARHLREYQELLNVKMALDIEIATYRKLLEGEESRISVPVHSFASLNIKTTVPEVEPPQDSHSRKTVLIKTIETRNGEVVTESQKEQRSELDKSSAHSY
UniProt Q9BZL6: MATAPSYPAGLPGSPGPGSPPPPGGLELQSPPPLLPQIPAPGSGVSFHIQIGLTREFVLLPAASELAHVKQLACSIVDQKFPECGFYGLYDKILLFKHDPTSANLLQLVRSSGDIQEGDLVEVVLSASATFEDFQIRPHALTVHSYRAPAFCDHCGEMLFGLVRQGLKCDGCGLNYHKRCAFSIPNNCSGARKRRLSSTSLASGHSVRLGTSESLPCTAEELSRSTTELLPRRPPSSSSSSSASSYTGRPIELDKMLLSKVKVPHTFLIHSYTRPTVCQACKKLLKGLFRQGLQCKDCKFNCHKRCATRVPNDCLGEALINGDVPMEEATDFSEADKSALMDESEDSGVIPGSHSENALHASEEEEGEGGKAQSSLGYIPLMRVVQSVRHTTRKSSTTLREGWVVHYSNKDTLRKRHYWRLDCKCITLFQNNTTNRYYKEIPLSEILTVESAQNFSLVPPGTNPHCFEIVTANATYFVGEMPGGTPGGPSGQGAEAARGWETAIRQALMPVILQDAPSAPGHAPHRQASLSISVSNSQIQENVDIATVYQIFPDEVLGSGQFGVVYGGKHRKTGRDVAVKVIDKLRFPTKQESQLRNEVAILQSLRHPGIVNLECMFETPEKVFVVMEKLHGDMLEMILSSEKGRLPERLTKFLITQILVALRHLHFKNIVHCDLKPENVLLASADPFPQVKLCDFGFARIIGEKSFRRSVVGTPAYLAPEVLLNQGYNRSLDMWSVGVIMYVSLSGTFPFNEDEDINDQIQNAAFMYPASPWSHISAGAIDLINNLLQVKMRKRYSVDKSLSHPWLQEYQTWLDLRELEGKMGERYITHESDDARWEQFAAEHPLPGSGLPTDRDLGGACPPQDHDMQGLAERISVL
UniProt P41743, whole entry, looked up: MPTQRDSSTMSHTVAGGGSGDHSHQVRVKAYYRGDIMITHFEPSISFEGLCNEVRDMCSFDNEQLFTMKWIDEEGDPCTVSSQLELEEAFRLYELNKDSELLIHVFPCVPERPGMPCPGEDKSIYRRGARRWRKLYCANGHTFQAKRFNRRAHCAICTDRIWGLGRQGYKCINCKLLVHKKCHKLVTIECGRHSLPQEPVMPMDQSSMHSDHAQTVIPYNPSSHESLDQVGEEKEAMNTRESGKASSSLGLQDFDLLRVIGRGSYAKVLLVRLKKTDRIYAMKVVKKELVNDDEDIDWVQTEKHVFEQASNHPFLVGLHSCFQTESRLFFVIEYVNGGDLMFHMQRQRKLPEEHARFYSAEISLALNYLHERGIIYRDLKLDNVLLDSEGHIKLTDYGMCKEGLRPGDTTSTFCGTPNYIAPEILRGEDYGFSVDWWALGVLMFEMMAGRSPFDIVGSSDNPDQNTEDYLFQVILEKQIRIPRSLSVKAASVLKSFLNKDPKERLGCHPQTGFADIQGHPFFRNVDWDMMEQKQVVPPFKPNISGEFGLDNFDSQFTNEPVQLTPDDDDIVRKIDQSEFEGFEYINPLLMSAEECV
UniProt Q9NR22, whole entry, looked up: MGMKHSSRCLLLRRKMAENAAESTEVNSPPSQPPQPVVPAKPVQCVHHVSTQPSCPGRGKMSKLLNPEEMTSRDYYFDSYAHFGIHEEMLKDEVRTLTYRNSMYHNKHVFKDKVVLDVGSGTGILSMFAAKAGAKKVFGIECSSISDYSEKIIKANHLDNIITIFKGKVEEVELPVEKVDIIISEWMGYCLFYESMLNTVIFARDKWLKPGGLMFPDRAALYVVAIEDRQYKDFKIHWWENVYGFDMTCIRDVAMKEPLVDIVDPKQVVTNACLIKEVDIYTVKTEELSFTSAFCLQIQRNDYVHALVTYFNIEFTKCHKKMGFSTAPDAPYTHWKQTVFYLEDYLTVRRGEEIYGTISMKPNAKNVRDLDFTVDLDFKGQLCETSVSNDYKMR
UniProt P30048: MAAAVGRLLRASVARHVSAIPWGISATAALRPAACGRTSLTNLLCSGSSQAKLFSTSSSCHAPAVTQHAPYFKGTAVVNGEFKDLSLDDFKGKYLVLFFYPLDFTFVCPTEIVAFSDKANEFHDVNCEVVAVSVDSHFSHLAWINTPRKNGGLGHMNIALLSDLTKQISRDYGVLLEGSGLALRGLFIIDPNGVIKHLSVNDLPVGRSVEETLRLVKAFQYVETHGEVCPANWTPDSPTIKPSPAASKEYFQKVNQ
UniProt P13861, whole entry, looked up: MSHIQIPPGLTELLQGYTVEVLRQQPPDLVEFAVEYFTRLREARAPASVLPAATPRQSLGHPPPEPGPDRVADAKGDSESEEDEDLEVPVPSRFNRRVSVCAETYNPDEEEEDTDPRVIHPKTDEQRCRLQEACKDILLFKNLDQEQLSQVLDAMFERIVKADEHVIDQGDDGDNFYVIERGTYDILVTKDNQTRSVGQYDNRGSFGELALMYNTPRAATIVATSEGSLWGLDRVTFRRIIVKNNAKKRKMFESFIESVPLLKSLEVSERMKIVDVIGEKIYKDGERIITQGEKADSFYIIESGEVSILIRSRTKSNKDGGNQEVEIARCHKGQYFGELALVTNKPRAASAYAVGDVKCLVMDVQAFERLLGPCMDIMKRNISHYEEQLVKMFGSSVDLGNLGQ
UniProt P41236: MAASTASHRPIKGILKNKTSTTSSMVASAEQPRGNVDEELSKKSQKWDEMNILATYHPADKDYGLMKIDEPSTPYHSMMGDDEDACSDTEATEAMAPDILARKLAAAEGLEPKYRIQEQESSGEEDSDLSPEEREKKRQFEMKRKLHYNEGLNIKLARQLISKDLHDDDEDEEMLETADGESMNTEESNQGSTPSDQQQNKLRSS
UniProt P60510: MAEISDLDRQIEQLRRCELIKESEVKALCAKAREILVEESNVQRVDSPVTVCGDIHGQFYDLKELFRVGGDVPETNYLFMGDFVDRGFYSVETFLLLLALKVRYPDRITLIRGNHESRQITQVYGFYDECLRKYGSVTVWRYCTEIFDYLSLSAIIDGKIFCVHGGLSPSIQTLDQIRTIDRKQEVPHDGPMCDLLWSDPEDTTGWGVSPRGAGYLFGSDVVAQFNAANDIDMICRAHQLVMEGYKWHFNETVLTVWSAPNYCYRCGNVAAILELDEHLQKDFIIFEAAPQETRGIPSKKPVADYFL
UniProt Q06830: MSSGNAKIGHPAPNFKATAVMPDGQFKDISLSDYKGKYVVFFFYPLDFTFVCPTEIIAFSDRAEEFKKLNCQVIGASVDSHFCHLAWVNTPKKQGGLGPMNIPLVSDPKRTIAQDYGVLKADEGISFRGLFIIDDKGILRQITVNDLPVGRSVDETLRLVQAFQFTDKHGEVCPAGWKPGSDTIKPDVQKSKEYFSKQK
UniProt Q9HCU5: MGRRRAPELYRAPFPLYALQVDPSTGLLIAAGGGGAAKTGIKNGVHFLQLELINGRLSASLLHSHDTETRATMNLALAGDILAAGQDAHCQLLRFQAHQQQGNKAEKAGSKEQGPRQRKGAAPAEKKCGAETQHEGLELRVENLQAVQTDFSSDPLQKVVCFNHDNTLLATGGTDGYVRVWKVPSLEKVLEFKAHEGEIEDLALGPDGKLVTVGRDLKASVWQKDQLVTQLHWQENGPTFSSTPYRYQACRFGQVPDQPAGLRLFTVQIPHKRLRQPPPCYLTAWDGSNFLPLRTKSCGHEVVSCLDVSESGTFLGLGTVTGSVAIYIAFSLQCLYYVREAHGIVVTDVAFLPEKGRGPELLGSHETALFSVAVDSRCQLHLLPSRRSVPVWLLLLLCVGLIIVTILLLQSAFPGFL
UniProt Q02156: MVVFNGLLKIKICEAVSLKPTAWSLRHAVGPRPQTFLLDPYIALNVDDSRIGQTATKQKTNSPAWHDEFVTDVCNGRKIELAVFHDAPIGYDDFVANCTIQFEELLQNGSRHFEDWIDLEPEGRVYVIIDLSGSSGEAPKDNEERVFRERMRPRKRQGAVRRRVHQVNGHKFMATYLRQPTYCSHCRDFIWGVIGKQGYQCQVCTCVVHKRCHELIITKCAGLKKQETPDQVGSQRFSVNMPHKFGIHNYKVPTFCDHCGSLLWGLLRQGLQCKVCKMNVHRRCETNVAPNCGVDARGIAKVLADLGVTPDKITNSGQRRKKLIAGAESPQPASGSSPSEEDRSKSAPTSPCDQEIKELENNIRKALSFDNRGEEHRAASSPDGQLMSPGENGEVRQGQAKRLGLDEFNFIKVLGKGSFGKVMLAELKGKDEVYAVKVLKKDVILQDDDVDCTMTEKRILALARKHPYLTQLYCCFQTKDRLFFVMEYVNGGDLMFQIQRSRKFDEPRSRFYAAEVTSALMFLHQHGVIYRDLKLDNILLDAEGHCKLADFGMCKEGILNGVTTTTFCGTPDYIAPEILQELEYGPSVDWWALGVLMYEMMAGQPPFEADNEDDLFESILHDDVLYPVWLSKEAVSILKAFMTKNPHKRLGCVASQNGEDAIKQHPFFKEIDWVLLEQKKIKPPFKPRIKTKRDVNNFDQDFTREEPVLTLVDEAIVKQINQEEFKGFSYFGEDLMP
UniProt P63151: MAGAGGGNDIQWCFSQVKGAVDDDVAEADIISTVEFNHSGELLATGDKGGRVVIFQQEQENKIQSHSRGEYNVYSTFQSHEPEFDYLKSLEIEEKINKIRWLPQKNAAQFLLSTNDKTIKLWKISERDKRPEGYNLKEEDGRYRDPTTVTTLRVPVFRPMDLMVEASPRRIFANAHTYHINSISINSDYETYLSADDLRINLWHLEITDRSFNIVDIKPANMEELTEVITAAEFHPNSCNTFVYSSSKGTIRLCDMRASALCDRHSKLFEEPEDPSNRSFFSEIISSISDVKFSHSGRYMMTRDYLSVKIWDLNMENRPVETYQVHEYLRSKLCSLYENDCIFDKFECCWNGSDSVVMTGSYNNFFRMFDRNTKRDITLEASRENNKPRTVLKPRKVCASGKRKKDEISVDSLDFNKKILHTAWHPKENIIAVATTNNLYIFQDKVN
UniProt Q9H875: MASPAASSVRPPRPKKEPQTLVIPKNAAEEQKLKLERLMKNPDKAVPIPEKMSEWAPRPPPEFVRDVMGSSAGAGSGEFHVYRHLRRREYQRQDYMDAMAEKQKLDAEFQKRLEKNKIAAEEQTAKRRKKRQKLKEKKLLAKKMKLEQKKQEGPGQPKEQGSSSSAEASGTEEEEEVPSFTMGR

Key:
Test in all cases: log2 fold change, soluble protein after heating vs DMSO (PISA); higher = thermal stabilisation; K562 cells, 10 uM, 30 min; active = over 0.2 and 3.5 SD of the protein, either way, in both replicates (recomputed)
[1] = compound: C1=CC=C(C=C1)[C@H](COC2=CC3=C(C=C2)NC(=O)N3)NC(=O)C4=CC=CN(C4=O)CC5=CC(=C(C=C5)F)F
Summary of the method: (§1)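 For each measurement, 10 μM compound was applied for 30 min to K562 cells at 2×10^6 cells/mL. Aliquots were heated for 3 min across 48°C-58°C, pooled, and extracted in PBS with 0.5% NP-40 at 4°C; the supernatant after 21,000xg for 90 min was soluble protein. This was quantified by TMTpro 16plex LC-MS/MS with channel sums equalised, and thermal stability was reported relative to control samples from duplicates, on a log2 fold-change scale.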

[2] = compound: CC1=C(SC2=C1C(=N[C@H](C3=NN=C(N32)C)CC(=O)N)C4=CC=C(C=C4)Cl)C
Summary of the method: as §1

[3] = compound: CC1=C2C(=CC=C1)N=C(N(C2=O)C3=CC=CC=C3C)CN4C=NC5=C(N=CN=C54)N
Summary of the method: as §1

[4] = compound: Cc1sc2c(c1C)C(c1ccc(Cl)cc1)=N[C@@H](CC(=O)OC(C)(C)C)c1nnc(C)n1-2
Summary of the method: as §1

[5] = compound: c1ccc([C@@H]2C[C@H]2NC2CCNCC2)cc1
Summary of the method: as §1

Measured: log2 fold change

PRRC1 (UniProt Q96M27)
inactive: [1] 0.022 | [2] 0.003 | [3] 0 | [4] 0.024 | [5] 0.018

PPP1CA (UniProt P62136)
inactive: [1] 0.003 | [2] 0.022 | [3] 0.025 | [4] 0.016 | [5] 0.015

PRKAR1A (UniProt P10644)
inactive: [1] 0.213 | [2] -0.019 | [3] 0.119 | [4] 0.041 | [5] -0.008

PQBP1 (UniProt O60828)
inactive: [1] 0.026 | [2] -0.022 | [3] -0.053 | [4] 0.007 | [5] 0.018

PRMT3 (UniProt O60678)
inactive: [1] -0.1 | [2] 0.077 | [3] 0.024 | [4] -0.013 | [5] 0.001

PPP6C isoform 3 (UniProt O00743)
inactive: [1] 0.045 | [2] 0.001 | [3] -0.017 | [4] 0.006 | [5] 0.03

PRR4 (UniProt Q16378)
inactive: [1] -0.006

PRPH isoform 2 (UniProt P41219)
inactive: [1] 0.197 | [2] -0.094 | [3] -0.085 | [4] 0.095 | [5] 0.037

PPP2R5E (UniProt Q16537)
inactive: [1] -0.045 | [2] 0.1 | [3] 0.105 | [4] -0.118 | [5] 0.05

PRKD2 isoform 3 (UniProt Q9BZL6)
inactive: [1] -0.051 | [2] 0.238 | [3] -0.057 | [4] 0.064 | [5] 0.028

PRPSAP1 isoform 2 (UniProt Q14558)
inactive: [1] 0.023 | [2] 0 | [3] -0.099 | [4] 0.027 | [5] 0.016

PRKCI (UniProt P41743)
inactive: [1] -0.049 | [2] 0.074 | [3] 0.134 | [4] 0.006 | [5] -0.07

PRPF8 (UniProt Q6P2Q9)
inactive: [1] -0.009 | [2] -0.013 | [3] -0.028 | [4] 0.063 | [5] 0.007

PRMT8 (UniProt Q9NR22)
inactive: [1] -0.002 | [2] 0.133 | [3] 0.046 | [4] -0.028 | [5] -0.015

PRDX3 (UniProt P30048)
inactive: [1] 0.001 | [2] 0.019 | [3] -0.06 | [4] 0.018 | [5] 0.041

PRKAR2A (UniProt P13861)
inactive: [1] 0.044 | [2] 0.046 | [3] 0.054 | [4] 0.018 | [5] -0.003

PPP1R2 (UniProt P41236)
inactive: [1] 0.018 | [2] 0.007 | [3] -0.022 | [4] 0.019 | [5] 0.031

Quoted at random: 2 records from the list
PRPSAP1 isoform 2 (UniProt Q14558)
inactive: [1] 0.023 | [2] 0 | [3] -0.099 | [4] 0.027 | [5] 0.016

PPP1CA (UniProt P62136)
inactive: [1] 0.003 | [2] 0.022 | [3] 0.025 | [4] 0.016 | [5] 0.015

(continued)

PPP4C (UniProt P60510)
inactive: [1] 0.028 | [2] 0.011 | [3] 0.035 | [4] 0.014 | [5] 0.006

PRDX1 (UniProt Q06830)
inactive: [1] -0.019 | [2] 0.045 | [3] 0.045 | [4] -0.009 | [5] -0.003

PREB (UniProt Q9HCU5)
inactive: [1] 0.013 | [2] 0.036 | [3] 0.053 | [4] -0.036 | [5] 0.054

PRKAR1B (UniProt P31321)
inactive: [1] 0.21 | [2] -0.026 | [3] 0.059 | [4] 0.019 | [5] -0.061

PRKCE (UniProt Q02156)
inactive: [1] -0.065 | [2] 0.033 | [3] 0.071 | [4] 0.018 | [5] 0

PPP2R2A isoform 2 (UniProt P63151)
inactive: [1] 0.021 | [2] 0.037 | [3] 0.016 | [4] -0.006 | [5] 0.006

PRKRIP1 (UniProt Q9H875)
inactive: [1] -0.015 | [2] 0.031 | [3] -0.017 | [4] 0.089 | [5] -0.051

PPOX (UniProt P50336)
inactive: [1] 0.385 | [2] 0.092 | [3] 0.129 | [4] 0.04 | [5] -0.045
